Results: PubChem BioAssay AID504834 (National Center for Advancing Translational Sciences (NCATS), 2011)
The campaign covered roughly 320,000 compounds. About 22,000 (6.9%) were called active. The shares of active, inactive and inconclusive entries below differ from those in the screen. Calls come from the whole dose curve; as a rule, active = well fitted inhibition curve with a large enough effect; inconclusive = small, poorly fitted or top-dose-only effect, or another doubt; inactive = no such curve, though single readings can be large or run the other way. Where the call is inconclusive, the potency comes from a doubtful curve fit.

Experiment: Primary qHTS for delayed death inhibitors of the malarial parasite plastid, 96 hour incubation
Conditions: P. falciparum luciferase reporter growth; series mostly up to 28.7 µM
In short: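 Readout is luminescence from an integrated firefly luciferase in P. falciparum. Red cells, 2% hematocrit and 0.05% parasitemia final, were cultured with compound through two parasite generations (96 hours) at 37 C, 5% CO2.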
% is set by controls: 0 for no effect and ±100 for the full control effect; potency is the fitted concentration of half-maximal effect.

| SMILES | Potency | activity change, negative = inhibition |
| --- | --- | --- |
| CCOC(=O)c1ccccc1NC(=O)COC(=O)Cc1ccccc1F | inactive | – |
| O=C1OC(c2cccs2)=N/C1=C\c1ccc(-c2ccccc2Cl)o1 | inactive | – |
| CC(C)Nc1nc(-c2ccncc2)nc(-c2ccccc2)c1C#N | inconclusive: 2.62 µM [inhibitor, full curve] | – |
| COc1ccc(OC)c(NC(=O)c2cc(OC(C)=O)cc(C(=O)Nc3cc(OC)ccc3OC)c2)c1 | inconclusive: 11.7 µM [inhibitor, partial curve] | – |
| COc1ccc(CC(=O)Nc2ccccc2N2CCCC2)cc1 | inconclusive: 11.7 µM [inhibitor, partial curve, poor fit] | – |
| CCN(CC)S(=O)(=O)c1ccc(N2CCOCC2)c(NC(=O)c2cc(C)cc(C)c2)c1 | inconclusive: 18.5 µM [inhibitor, single point] | – |
| CCOC(=O)c1c(NC(=O)C2=C(C)NC(=S)NC2c2ccc(F)cc2)sc(C)c1C (centres undefined) | inconclusive: 18.5 µM [inhibitor, single point] | – |
| O=C(NCC(c1ccc(F)cc1)N1CCOCC1)c1cccnc1Sc1ccc(Cl)cc1 (centres undefined) | inconclusive: 18.5 µM [inhibitor, single point] | – |
| CC(C)(C)c1ccc(Cn2c(=N)n(CC(O)c3ccco3)c3ccccc32)cc1 (centres undefined) | active: 11.7 µM | – |
| COC(=O)c1ccc(Oc2nc(C)cc(Oc3ccccc3)n2)cc1 | inactive | – |
| Cc1ccc(C(=O)Nc2ccccc2C(=O)N2CCCC(C)C2)cc1 (centres undefined) | inactive | – |
| CC(=O)Cc1nsc(Nc2ccc(C)cc2)n1 | inconclusive: 5.22 µM [inhibitor, partial curve] | – |
| CCc1c(C2(O)CCCCC2)[nH]c2cnccc12 | inconclusive: 11.7 µM [inhibitor, partial curve, poor fit] | – |
| CC1(C)Cc2cccc(OCC(=O)N3CCN(c4ccc(F)cc4)CC3)c2O1 | inconclusive: 1.47 µM [inhibitor, full curve, poor fit] | – |
| COc1ccc(-c2nc(CCNS(=O)(=O)c3ccc4c(c3)OCCO4)cs2)cc1 | inconclusive: 11.7 µM [inhibitor, single point] | – |
| O=C(Nc1cccc(-c2nnc(-c3ccccc3)o2)c1)C1CC1 | – | inactive: 33.8% [at 1.15 µM] |
| COc1ccc(C2c3[nH]c4ccccc4c3C[C@H]3C(=O)N(c4ccccc4C(=O)N4CCC[C@H]4C(=O)O)C(=O)N23)cc1 (some centres undefined) | inconclusive: 0.522 µM [inhibitor, full curve, poor fit] | – |
| O=C(O)c1cccc(N2C(=O)/C(=C/c3ccc(SCc4ccc(Cl)cc4)o3)SC2=S)c1 | inactive | – |
| Cc1cc(C(=O)N/N=C2\CC(=O)c3ccccc32)c(C)n1-c1ccc(F)cc1 | active: 2.33 µM | – |
| CCOCCCNC(=O)C1CCN(S(=O)(=O)c2cc(Br)cc3c2N(C(=O)CC)CC3)CC1 | inconclusive: 1.65 µM [inhibitor, full curve] | – |
| CCOC(=O)c1nc(C)nc(Sc2n[nH]c(-c3ccccc3)n2)c1C | inconclusive: 10.4 µM [inhibitor, single point] | – |
| Cc1cccc(-c2c(O)cc(=O)[nH]c2Cl)c1 | inactive | – |
| CCN(c1ccccc1)S(=O)(=O)c1cccc(C(=O)NCc2ccccc2CN2CCOCC2)c1 | inconclusive: 18.5 µM [inhibitor, single point] | – |

| SMILES | Potency | activity change, negative = inhibition |
| --- | --- | --- |
| Cc1cccc(N=Cc2cc3c(cc2[N+](=O)[O-])OCO3)c1 | inconclusive: 13.1 µM [inhibitor, single point] | – |
| Cc1nn(Cc2ccccc2Cl)c(C)c1N | inconclusive: 10.4 µM [inhibitor, single point] | – |
| CCOC(=O)C1=CCC2c3c(c4ccccc4n3C)C(=O)C1N2C(=O)OC(C)(C)C (centres undefined) | inconclusive: 1.85 µM [inhibitor, partial curve, poor fit] | – |
| CCN(C(=O)COc1ccccc1C(=O)NCc1ccccc1)C1CCS(=O)(=O)C1 (centres undefined) | inconclusive: 10.4 µM [inhibitor, single point] | – |
| Brc1ccc(-c2ccc(/C=N/Nc3nc4ccccc4[nH]3)o2)cc1 | active: 13.1 µM | – |
| CCC(=O)N1CCc2cc(Br)cc(S(=O)(=O)CCC(=O)N(CC)CC)c21 | inconclusive: 13.1 µM [inhibitor, single point] | – |
| CCOC(=O)N1CCN(C(=O)/C(=C/c2cccc3ccccc23)NC(=O)c2ccc(OC)c(OC)c2)CC1 | inconclusive: 11.7 µM [inhibitor, single point] | – |
| CCOC(=O)CNC(=O)CSc1nnc(NC(=O)c2ccc(S(=O)(=O)N3CCOCC3)cc2)s1 | inactive | – |
| COc1ccc(/C=C2\SC(=O)N(CC(=O)NC3CCS(=O)(=O)C3)C2=O)cc1 (centres undefined) | inactive | – |
| Cc1ccc2nc(NC(=O)CN(C)S(=O)(=O)c3cccc4nsnc34)sc2c1 | inconclusive: 7.38 µM [inhibitor, partial curve] | – |
| O=C(N/N=C/c1cccc([N+](=O)[O-])c1)c1ccc(Br)cc1 | inactive | – |
| Cn1cc(/C=C/C(=O)N2CCCC(C(=O)c3cccc(C(F)(F)F)c3)C2)cn1 (centres undefined) | active: 4.15 µM | – |
| COC(=O)[C@@]1(Cc2ccc(F)cc2)[C@H]2c3cc(C(=O)N4CCCC4)n(CCO)c3C[C@H]2CN1C(=O)c1ccccc1 | active: 6.57 µM | – |
| CC(=O)N(Cc1c(C#N)c2ccccc2n1C)c1ccccc1 | inconclusive: 0.415 µM [inhibitor, partial curve, poor fit] | – |
| CCOC(=O)C1CCN(CC(O)COc2ccc(C(C)=O)cc2)CC1 (centres undefined) | active: 9.28 µM | – |
| Cc1ccc(-c2nnc(CN3CCCCC3C)o2)cc1 (centres undefined) | inactive | – |
| CN(C)c1ccc(C2Nc3ccccc3C(=O)N2CCCN2CCOCC2)cc1 (centres undefined) | inconclusive: 10.4 µM [inhibitor, single point] | – |
| Cc1nnc(NC(=O)CSc2ccc(-c3ccco3)nn2)s1 | inconclusive: 0.104 µM [inhibitor, full curve, poor fit] | – |
| CC(=O)Nc1ccc(S(=O)(=O)N(C)CC(=O)Nc2cccc(S(=O)(=O)N3CCCC3)c2)cc1 | inconclusive: 10.4 µM [inhibitor, single point] | – |
| Cc1ccc([N+](=O)[O-])cc1N(CC(=O)N1CCCCC1)S(C)(=O)=O | inactive | – |
| COc1cc2c(cc1OC)C1Cc3ccc(OC)c(OC)c3CN1CC2 (centres undefined) | inconclusive: 18.5 µM [inhibitor, single point] | – |
| COC(=O)c1ccc(/C=N/NC(=O)C(=O)NCC2CCCO2)cc1 (centres undefined) | inactive | – |
| Cc1cc(Cl)ccc1NC(=S)NCCC(c1ccccc1)c1ccccc1 | inconclusive: 18.5 µM [inhibitor, single point] | – |

| SMILES | Potency | activity change, negative = inhibition |
| --- | --- | --- |
| N#Cc1ccccc1Sc1ccccc1C(=O)NCC(c1ccco1)N1CCCC1 (centres undefined) | inconclusive: 18.5 µM [inhibitor, single point] | – |
| CC(C)(C)c1ccc(C(=O)Nc2ccc(N3CCOCC3)cc2)cc1 | inconclusive: 0.0415 µM [inhibitor, full curve, poor fit] | – |
| COc1cc(NC(=S)N2CCCC(C)C2)cc(OC)c1OC (centres undefined) | active: 10.4 µM | – |
| O=C(CCCN1C(=O)/C(=C/c2cccc(Br)c2)SC1=S)NCCCN1CCOCC1 | active: 3.29 µM | – |
| O=C(NC(=S)Nc1ccc(Cl)cn1)c1cc([N+](=O)[O-])ccc1N1CCOCC1 | inactive | – |
| CN(C)CCO[C@@H](c1ccc(Cl)cc1)c1ccccn1 | inconclusive: 14.7 µM [inhibitor, single point] | – |
| COc1ccc(/C=N/Nc2nc3ccccc3[nH]2)cc1OC | inconclusive: 0.37 µM [inhibitor, partial curve, poor fit] | – |
| O=C1NC(=Nc2ccccc2)SC1Cc1cccc(Cl)c1Cl (centres undefined) | inconclusive: 9.28 µM [inhibitor, partial curve] | – |
| CCc1ccc(NCCC(=O)c2ccc(Cl)cc2)cc1 | inactive | – |
| Cc1nnc(SCC(=O)Nc2ccc(S(=O)(=O)N3CCCCC3)cc2)s1 | inconclusive: 9.28 µM [inhibitor, single point] | – |
| O=C(Nc1cccc(NC(=O)c2ncn[nH]2)c1)c1cccc(Cl)c1 | inconclusive: 10.4 µM [inhibitor, single point] | – |
| Cc1cc2c(c(SCC(=O)NCc3ccccc3Cl)n1)C(=O)OC2 | inactive | – |
| Cc1cccc(/C(N)=N/OC(=O)Cc2ccccc2)c1 | inconclusive: 10.4 µM [inhibitor, single point] | – |
| O=c1sc(N2CCN(c3ccc(F)cc3)CC2)nc2ccsc12 | inconclusive: 10.4 µM [inhibitor, single point] | – |
| CCOC(=O)CSc1nc2cc(C(=O)N3CCCC3)ccc2c(=O)n1Cc1ccccc1 | inconclusive: 18.5 µM [inhibitor, partial curve, poor fit] | – |
| O=C1c2ccccc2C(=O)N1Cc1nc2ccccc2c(=O)n1-c1ccc(Br)cn1 | active: 7.38 µM | – |
| O=C1C=C(c2cccc(OCc3ccccc3)c2)C[C@@H](c2ccc3c(c2)OCO3)C1 | inconclusive: 13.1 µM [inhibitor, single point] | – |
| O=C(NCCC1CC1(Cl)Cl)c1ccc([N+](=O)[O-])cc1 (centres undefined) | inactive | – |
| O=C(Nc1nc(-c2ccc(F)c(F)c2)cs1)c1cc([N+](=O)[O-])ccc1N1CCOCC1 | inconclusive: 2.94 µM [inhibitor, partial curve, poor fit] | – |
| Cc1cc(C)c2cc(C#N)c(NCCNC(=S)NCCCN3CCOCC3)nc2c1 | inconclusive: 2.94 µM [inhibitor, single point] | – |
| Nc1cc(C(=O)OCC(=O)N2CCCC2=O)ccc1Cl | inactive | – |
| COC(=O)c1c(NC(=O)CN2CCN(c3cccc(Cl)c3)CC2)sc(C)c1C | inactive | – |
| CC(=O)Nc1ccc(S(=O)(=O)Oc2cccc(/C=C3\SC(N)=NC3=O)c2)cc1 | inconclusive: 16.5 µM [inhibitor, single point] | – |

A draw from above in order of SMILES length, rising:

| SMILES | Potency | activity change, negative = inhibition |
| --- | --- | --- |
| O=C(Nc1cccc(NC(=O)c2ncn[nH]2)c1)c1cccc(Cl)c1 | inconclusive: 10.4 µM [inhibitor, single point] | – |
| CC(=O)Nc1ccc(S(=O)(=O)Oc2cccc(/C=C3\SC(N)=NC3=O)c2)cc1 | inconclusive: 16.5 µM [inhibitor, single point] | – |
| O=C1C=C(c2cccc(OCc3ccccc3)c2)C[C@@H](c2ccc3c(c2)OCO3)C1 | inconclusive: 13.1 µM [inhibitor, single point] | – |
